These results are taken from PMC10805922, “Exosomal secreted SCIMP regulates communication between macrophages and neutrophils in pneumonia” (Nature Communications, 2024).

No constants are given. Whether binding was seen depends on the method and setting. Some entries that bind do so weakly or less than the wild type.

Common to all, as to assay: other fluorescence titration; competitive binding assay; labelled SCIMP^N mixed with serially diluted fMLF (5-1280 nM) and a fixed amount of FPR-containing HEK293 membrane debris, fluorescence at 512 nm measured for 4 min; only the binder purified
The target in one test is T1, murine FPR2 (murine, UniProt O88536 1-351).
T1 construct: formyl peptide receptor 2, mouse, overexpressed in HEK293 cells; also called murine formyl peptide receptor 2; source: HEK293 overexpressing FPRs, membrane debris
T1 sequence (looked up): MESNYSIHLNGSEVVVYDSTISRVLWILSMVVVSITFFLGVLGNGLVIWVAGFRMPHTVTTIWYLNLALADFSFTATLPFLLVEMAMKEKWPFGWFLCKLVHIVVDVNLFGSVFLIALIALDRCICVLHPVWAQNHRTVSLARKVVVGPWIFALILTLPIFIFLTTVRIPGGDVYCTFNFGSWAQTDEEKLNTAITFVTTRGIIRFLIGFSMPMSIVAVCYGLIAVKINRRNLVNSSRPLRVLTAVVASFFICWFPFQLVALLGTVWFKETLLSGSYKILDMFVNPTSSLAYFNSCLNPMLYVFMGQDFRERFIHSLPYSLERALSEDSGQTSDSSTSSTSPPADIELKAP

The next test concerns the target T2, murine FPR1 (murine, UniProt P33766 1-364).
T2 construct: formyl peptide receptor 1, mouse, overexpressed in HEK293 cells; also called murine formyl peptide receptor 1; source: HEK293 overexpressing FPRs, membrane debris
T2 sequence (looked up): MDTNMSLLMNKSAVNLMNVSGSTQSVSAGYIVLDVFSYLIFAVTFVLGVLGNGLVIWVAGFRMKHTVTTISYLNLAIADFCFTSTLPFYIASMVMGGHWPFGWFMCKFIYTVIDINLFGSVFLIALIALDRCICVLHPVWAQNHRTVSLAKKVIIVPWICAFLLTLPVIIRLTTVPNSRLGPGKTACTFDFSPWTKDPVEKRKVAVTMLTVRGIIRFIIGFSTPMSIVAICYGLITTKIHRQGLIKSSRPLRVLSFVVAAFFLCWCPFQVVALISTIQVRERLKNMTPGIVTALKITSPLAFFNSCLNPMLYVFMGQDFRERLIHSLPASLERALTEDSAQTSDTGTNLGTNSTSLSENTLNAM

The target of test [1] is T3, human formyl peptide receptor 1 (FPR1) (human, UniProt P21462 1-350).
T3 construct: formyl peptide receptor 1, human, overexpressed in HEK293 cells; also called FPR1-HEK293; source: HEK293, transiently overexpressed
T3 sequence (looked up): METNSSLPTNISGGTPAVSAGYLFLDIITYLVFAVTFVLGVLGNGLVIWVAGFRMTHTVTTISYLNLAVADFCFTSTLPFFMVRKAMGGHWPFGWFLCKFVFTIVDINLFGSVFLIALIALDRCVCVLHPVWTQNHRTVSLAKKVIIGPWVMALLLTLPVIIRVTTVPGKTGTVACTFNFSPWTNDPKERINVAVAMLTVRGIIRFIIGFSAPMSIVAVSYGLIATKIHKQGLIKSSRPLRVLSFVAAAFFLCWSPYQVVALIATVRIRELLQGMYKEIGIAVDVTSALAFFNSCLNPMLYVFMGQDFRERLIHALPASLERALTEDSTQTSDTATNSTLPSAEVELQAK

The target in test [2] is T4, human formyl peptide receptor 2 (FPR2) (human, UniProt P25090 1-351).
T4 construct: formyl peptide receptor 2, human, overexpressed in HEK293 cells; also called FPR2-HEK293; source: HEK293, transiently overexpressed
T4 sequence (looked up): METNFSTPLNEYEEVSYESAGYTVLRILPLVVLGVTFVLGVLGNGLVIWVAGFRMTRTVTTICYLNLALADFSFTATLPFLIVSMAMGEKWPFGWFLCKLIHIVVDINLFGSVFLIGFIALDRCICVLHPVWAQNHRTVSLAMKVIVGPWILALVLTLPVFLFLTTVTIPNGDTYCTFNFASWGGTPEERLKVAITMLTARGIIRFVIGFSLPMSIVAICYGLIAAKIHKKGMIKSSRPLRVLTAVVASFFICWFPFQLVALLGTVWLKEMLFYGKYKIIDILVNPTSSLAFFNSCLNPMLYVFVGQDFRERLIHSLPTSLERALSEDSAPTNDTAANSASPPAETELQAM

In the case of MSWWRDNF (labeled with BODIPY FL iodoacetamide (site not stated)) [murine SCIMP N-terminus peptide (murine SCIMP^N)], the binding result with murine FPR2 and with murine FPR1 was “binds” throughout.
Turning to MDTFTVQDSTAMSWWRNN (labeled with BODIPY FL iodoacetamide (site not stated)) [human SCIMP N-terminus peptide (SCIMP^N, 18aa)], the binding entry in test [1] and in test [2] was “binds” throughout.
